The series can be described thus: general procedure: solution-phase peptide synthesis; DCC/HONB (ONB active esters). As to conditions: for cyclisation yield: cyclisation step.

HELM strings list residues between dots; [ac] is acetyl, [am] amide, other brackets name non-standard units. Non-standard residues stand in square brackets, D forms with d.

Regarding “Cyclo[--D--Cta--Trp--Asp--D--Leu--Leu--D--Trp--]”, the cyclisation yield is on record as 23.8%.
As to “PEPTIDE1{[dD].A.[dE].[dL].L.[dW]}$PEPTIDE1,PEPTIDE1,1:R1-6:R2$$$V2.0”, the cyclisation yield is 10.8%.
For the setting “coupling step”, “PEPTIDE1{[dD].D.D.[dL].L.[dW]}$PEPTIDE1,PEPTIDE1,6:R2-1:R1$$$V2.0” came in with a step yield of 83.8%.
Same read-out and setting: next, “PEPTIDE1{[dD].D.W.[dL].L.[dW]}$PEPTIDE1,PEPTIDE1,6:R2-1:R1$$$V2.0”: 90 0%.
Still for that read-out and setting: for “PEPTIDE1{[dD].H.D.[dL].L.[dW]}$PEPTIDE1,PEPTIDE1,6:R2-1:R1$$$V2.0” the value was 93.1%.
Regarding “PEPTIDE1{[dD].W.D.[Acbu].L.[dW]}$PEPTIDE1,PEPTIDE1,1:R1-6:R2$$$V2.0”, the cyclisation yield runs as follows: (run 1) 19.2%; (run 2) 10.4%.
Consider “PEPTIDE1{[dD].W.D.[Achx].L.[dW]}$PEPTIDE1,PEPTIDE1,1:R1-6:R2$$$V2.0”, for which the step yield (coupling step) is reported as 94.2%.
Regarding “PEPTIDE1{[dD].W.D.[D-Thg(2)].L.[dW]}$PEPTIDE1,PEPTIDE1,1:R1-6:R2$$$V2.0”, the cyclisation yield is listed as 4.6%.
Substance “PEPTIDE1{[dD].W.D.[D-gMeLeu].L.[dW]}$PEPTIDE1,PEPTIDE1,1:R1-6:R2$$$V2.0” came in with a cyclisation yield of 51.5%. In addition, the step yield (coupling step) was determined as 49.1%.
As to “PEPTIDE1{[dD].W.D.[dL].L.[D-Trp(For)]}$PEPTIDE1,PEPTIDE1,1:R1-6:R2$$$V2.0”, the step yield (coupling step) came to 91.1%.
Regarding “PEPTIDE1{[dD].W.D.[dL].L.[dTrp(Me)]}$PEPTIDE1,PEPTIDE1,6:R2-1:R1$$$V2.0”, the cyclisation yield is 47.4%.
As to “PEPTIDE1{[dD].W.D.[dPhg].L.[dW]}$PEPTIDE1,PEPTIDE1,6:R2-1:R1$$$V2.0”, under “late stage modification step”, the step yield is recorded as 93.0%.
Substance “PEPTIDE1{[dD].W.D.[dTle].L.[dW]}$PEPTIDE1,PEPTIDE1,6:R2-1:R1$$$V2.0” displayed a cyclisation yield of 42.8%. The substance also returned a step yield (coupling step) of 87.3%.
For “PEPTIDE1{[dD].W.D.[dV].L.[dW]}$PEPTIDE1,PEPTIDE1,6:R2-1:R1$$$V2.0”, the step yield (coupling step) was 93 2%.
The same measure, in the same setting: for “PEPTIDE1{[dD].W.E.[dL].L.[dW]}$PEPTIDE1,PEPTIDE1,6:R2-1:R1$$$V2.0” the value was 98 2%; for “PEPTIDE1{[dD].[1Nal].D.[dL].L.[dW]}$PEPTIDE1,PEPTIDE1,6:R2-1:R1$$$V2.0”, 79 0%.
In turn, “PEPTIDE1{[dD].[Arg(Tos)].D.[dL].L.[dW]}$PEPTIDE1,PEPTIDE1,1:R1-6:R2$$$V2.0” returned a cyclisation yield of 17.8%.
The same measure, in the same setting: for “PEPTIDE1{[dD].[Asn(CH2CH2-Ind)].D.[dL].L.[dW]}$PEPTIDE1,PEPTIDE1,1:R1-6:R2$$$V2.0” the value was 19.4%.
The substance “PEPTIDE1{[dD].[Asp(R2)].D.[dL].L.[dW]}$PEPTIDE1,PEPTIDE1,1:R1-6:R2$$$V2.0” returned a step yield (coupling step) of 92.4%.
In turn, “PEPTIDE1{[dD].[Asp(R3)].D.[dL].L.[dW]}$PEPTIDE1,PEPTIDE1,1:R1-6:R2$$$V2.0” had a step yield (coupling step) of 87.6%.
Turning to “PEPTIDE1{[dD].[Asp(R4)].D.[dL].L.[dW]}$PEPTIDE1,PEPTIDE1,1:R1-6:R2$$$V2.0”, for the setting “coupling step”, the step yield was found to be 75.4%.
With “PEPTIDE1{[dD].[Asp(R5)].D.[dL].L.[dW]}$PEPTIDE1,PEPTIDE1,1:R1-6:R2$$$V2.0”, the step yield (late stage modification step) worked out at 91.4%.
As for “PEPTIDE1{[dD].[Asp(R6)].D.[dL].L.[dW]}$PEPTIDE1,PEPTIDE1,1:R1-6:R2$$$V2.0”, the cyclisation yield stood at 20.6%.
The substance “PEPTIDE1{[dD].[Gln(CH2CH2-Ind)].D.[dL].L.[dW]}$PEPTIDE1,PEPTIDE1,1:R1-6:R2$$$V2.0” showed a step yield (late stage modification step) of 81.0%.
“PEPTIDE1{[dD].[Gln(CH2CH2Ph)].D.[dL].L.[dW]}$PEPTIDE1,PEPTIDE1,1:R1-6:R2$$$V2.0” gave a step yield (coupling step) of 77.0%.
Where the note is “coupling step”, “PEPTIDE1{[dD].[Gln(CH2Ph)].D.[dL].L.[dW]}$PEPTIDE1,PEPTIDE1,1:R1-6:R2$$$V2.0” returned a step yield of 87.0%.
Consider “PEPTIDE1{[dD].[His(Bom)].D.[dL].L.[dW]}$PEPTIDE1,PEPTIDE1,1:R1-6:R2$$$V2.0”, for which the step yield (late stage modification step) was 96.1%.
In the case of “PEPTIDE1{[dD].[His(Bzl)].D.[dL].L.[dW]}$PEPTIDE1,PEPTIDE1,1:R1-6:R2$$$V2.0”, the cyclisation yield was 52.9%.
As to “PEPTIDE1{[dD].[Hyp(Bzl)].D.[dL].L.[dW]}$PEPTIDE1,PEPTIDE1,1:R1-6:R2$$$V2.0”, the step yield reads like this: (late stage modification step) 82.6%; (purification step) 79.0%.
As to “PEPTIDE1{[dD].[Hyp].D.[dL].L.[dW]}$PEPTIDE1,PEPTIDE1,6:R2-1:R1$$$V2.0”, the step yield is given as 96 4% (coupling step), 85.7% (late stage modification step) and 78.8% (purification step).
The substance “PEPTIDE1{[dD].[Orn(COCH2-Ind)].D.[dL].L.[dW]}$PEPTIDE1,PEPTIDE1,1:R1-6:R2$$$V2.0” had a cyclisation yield of 12.5%. For the same substance, the step yield (coupling step) is 86.7%.
For “PEPTIDE1{[dD].[Orn(COCH2CH2Ph)].D.[dL].L.[dW]}$PEPTIDE1,PEPTIDE1,1:R1-6:R2$$$V2.0” the same measures were 40.9% and 90.7%.
On to “PEPTIDE1{[dD].[Orn(COCH2Ph)].D.[dL].L.[dW]}$PEPTIDE1,PEPTIDE1,1:R1-6:R2$$$V2.0”, for which the cyclisation yield turned out to be 2.9%.
On the same count and under the same terms, next, “PEPTIDE1{[dD].[Orn(COPh)].D.[dL].L.[dW]}$PEPTIDE1,PEPTIDE1,1:R1-6:R2$$$V2.0”: 48.1%.
Regarding “PEPTIDE1{[dD].[Trp(For)].D.[dL].L.[dW]}$PEPTIDE1,PEPTIDE1,1:R1-6:R2$$$V2.0”, the step yield (coupling step) amounted to 88.0%.
The same measure, in the same setting: for “PEPTIDE1{[dD].[dA].D.[dL].L.[dW]}$PEPTIDE1,PEPTIDE1,1:R1-6:R2$$$V2.0” the value was 91.8%; for “PEPTIDE1{[dD].[dP].D.[dL].L.[dW]}$PEPTIDE1,PEPTIDE1,6:R2-1:R1$$$V2.0”, 84 3%.
With cyclo([dD]AD[dL]L[dW]), the cyclisation yield was 18.2%.
The same measure, in the same setting: for cyclo([dD]AE[dL]L[dW]) the value was 24.1%; for cyclo([dD]A[dD][dL]L[dW]), 15.3%; for “cyclo[-D-Asp(OBzl)-Asn(NHCH2 CH2 Ind)-Asp(OBzl)-D-Thg(2)-Leu-D-Trp-]”, 90.4%.
Still for that read-out and setting: for “cyclo[-D-Asp-Asn(CH2 CH2 -Ind)-Asp-DThg-(2)-Leu-D-Trp-]” the value was 9.5%.
The same measure, in the same setting: next, “cyclo[-D-Asp-Asn(CH2 CH2 Ph)-Asp-D-Leu-Leu-D-Trp-]”: 24.1%.

Source of the values: patent publication US5616684A (priority 1991, dated 1997).
